# Hit rate of the full screen: of about 320,000 compounds, about 2,100 (0.66%) were called active. Inconclusive results, whose numbers are uncertain, are shown with a selection of clear calls. Calls follow the shape of the dose curve; as a rule, active = well fitted inhibition curve with a large enough effect in the signal ratio, with a control signal flat (not every such curve was filed as active); inconclusive = small, poorly fitted or top-dose-only effect, or effect the other way, or a change in a side signal; inactive = flat fitted curve, though single readings scatter; the % refers to the signal ratio. Potencies beside an inconclusive call are fits to weak or partial responses and may not hold up.
# Assay: qHTS Assay for Lipid Storage Modulators in Drosophila S3 Cells
# Settings: BODIPY lipid droplet fluorescence, 18-24 h, cells fed with added oleic acid; lipid storage change, negative = inhibition: at 46.1 µM (top of the series) unless noted
# Procedure, shortened: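 Drosophila S3 cells loaded with oleic acid (400 uM, as added) and compounds at several concentrations; lipid droplets imaged by 488-nm laser-scanning cytometry, 500–530 nm intensity and object ratio to cell channel. Percent activity normalized to 20 uM Triacsin C.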
# % is scaled to controls: 0 for no effect and ±100 for the full control effect; potency is read from the fitted curve at half-maximal effect.
SMILES,"lipid storage change, negative = inhibition",Potency
N#CCCN(C(=O)COC(=O)c1ccc2c(c1)OCO2)c1ccccc1,inconclusive: 19.9%,
CCOC(=O)c1sc(Nc2cccc(Cl)c2)nc1C,,"inconclusive: 32.6 µM [falling, single point]"
O=C(N/N=C/c1ccc(Br)cc1)c1ccc(Br)o1,inconclusive: 21.9%,
COc1ccc(NC(=S)N2CCC(NC(=O)c3ccco3)CC2)cc1,inconclusive: 5.85%,
COc1cccc(CNC(=O)c2ccc(NC(=O)CC3SC(N4CCCC4)=NC3=O)cc2)c1 (configuration not stated),inconclusive: -11.4%,
COc1ccccc1/C=C1/SC(=O)N(CCC(=O)Nc2ccc(S(=O)(=O)Nc3nccs3)cc2)C1=O,inconclusive: 35.2%,
O=C(CSc1nnc(C2COc3ccccc3O2)o1)NC1CCCCC1 (configuration not stated),inconclusive: -0.884%,
Nn1c(CSc2ccccn2)nc2ccccc2c1=O,inconclusive: 1.8%,
CCn1ncc(Br)c1C(=O)Nc1cccc(C(C)=O)c1,inconclusive: 7.4%,
CCOc1ccc(CCNc2nc3ccccc3n3cnnc23)cc1OCC,,"inconclusive: 3.26 µM [activator, single point]"
Cc1ccc(N(CN2C(=O)C3CC=CCC3C2=O)C(=O)c2ccco2)cc1Cl (configuration not stated),inconclusive: -45.1%,
Cc1c(NC(=O)COC(=O)c2c3c(nc4ccccc24)CCCC3)c(=O)n(-c2ccccc2)n1C,inconclusive: 17.4%,
CNC(=O)C1CC(=O)N(c2ccc(F)c(Cl)c2)C1 (configuration not stated),inactive,
CC(=O)Nc1sc2c(c1-c1nc3ccccc3s1)CCN(C(C)C)C2,inconclusive: -42.6%,
CC(=O)N1CN(CCCn2ccnc2)Cc2c1sc1c2CCCC1,inconclusive: 21.6%,
COc1cc(C(=O)Nc2cccc(-c3nc4ccccc4o3)c2C)cc(OC)c1OC,inactive,
COCCN(C(=O)COC(=O)c1sccc1C)c1c(N)n(Cc2ccccc2)c(=O)[nH]c1=O,,"inconclusive: 11.6 µM [falling, single point]"
Cc1cc(=O)[nH]c(SCC(=O)Nc2ccc(Br)cc2)n1,inconclusive: 14.7%,
O=C(O)CCN1CCOCC1,inconclusive: 19%,
COc1ccccc1OCc1nc2ccccc2s1,,"inconclusive: 20.6 µM [activator, partial curve]"
CN(Cc1ccc(-n2cccn2)cc1)C(=O)c1cnn2c1NC(c1ccco1)CC2C(F)(F)F (configuration not stated),,"inconclusive: 1.46 µM [rising, full curve]"
COC(=O)C1=C(C(=O)OC)[C@@H]2N(Cc3ccccc3)c3ccccc3[C@@]23C[C@@H](C(=O)OC)N(C(=O)CC(C)C)C3=N1,,"inconclusive: 5.17 µM [falling, full curve]"
Cc1cccc(C)c1NC(=O)NC1(C(=O)NCC2CCCO2)CCCCC1 (configuration not stated),inconclusive: 44.9%,
CC(OC(=O)C1=NN(c2ccccc2)C(=O)CC1)C(=O)NC1CCCCC1C (configuration not stated),,"inconclusive: 2.06 µM [falling, single point]"
CCc1ccc2oc(-c3ccc(NC(C)=O)cc3)nc2c1,,active: 11.6 µM
Cc1cnc(C)c(N2CCN(Cc3nc(-c4ccccc4)no3)CC2)n1,inconclusive: 26.4%,

# Single records, as listed above:
# `CNC(=O)C1CC(=O)N(c2ccc(F)c(Cl)c2)C1` (configuration not stated) is listed as lipid storage change, negative = inhibition: inactive
# `Cc1cnc(C)c(N2CCN(Cc3nc(-c4ccccc4)no3)CC2)n1` is listed as lipid storage change, negative = inhibition: inconclusive: 26.4%
# `COc1cccc(CNC(=O)c2ccc(NC(=O)CC3SC(N4CCCC4)=NC3=O)cc2)c1` (configuration not stated) is listed as lipid storage change, negative = inhibition: inconclusive: -11.4%
# `COCCN(C(=O)COC(=O)c1sccc1C)c1c(N)n(Cc2ccccc2)c(=O)[nH]c1=O` is listed as Potency: inconclusive: 11.6 µM [falling, single point]

# More results follow.

SMILES,"lipid storage change, negative = inhibition",Potency
CC(=O)NC(Cc1ccc(F)cc1)C(=O)NC1CCN(C(=O)NCc2ccccc2)CC1 (configuration not stated),,"inconclusive: 29.1 µM [falling, single point]"
Cc1[nH]nc(Nc2ccc(Br)cc2)c1[N+](=O)[O-],,"inconclusive: 6.51 µM [activator, single point]"
Cc1c(NS(=O)(=O)c2ccc3c(c2)OCCO3)cccc1-c1nc2cccnc2s1,inconclusive: -61.9%,
CCCCn1c(N)c(N(CCC(C)C)C(=O)c2cc(CC)c(C)s2)c(=O)[nH]c1=O,inconclusive,
Nn1c(COc2cccc(Cl)c2)nc2ccccc2c1=O,,"inconclusive: 20.6 µM [activator, single point]"
O=S(=O)(Nc1ccc(N2CCCCC2)cc1)c1cccs1,,"inconclusive: 0.0046 µM [activator, full curve, poor fit]"
N#Cc1cccc(NC(=O)COC(=O)c2ccccc2Sc2ccccc2C#N)c1,inconclusive: -23.4%,
COc1cc(C(=O)NCc2nnc(SCC(=O)N3CCOCC3)o2)cc(OC)c1OC,inconclusive: 7.14%,
CCc1n[nH]c(=S)n1/N=C/c1ccccn1,inconclusive: 41%,
COCCC(=O)Nc1c(-c2ccccc2)c2cc(Br)ccc2[nH]c1=O,,"inconclusive: 1.03 µM [activator, full curve, poor fit]"
CCOc1ccc(-n2c(C)c(C(=O)O)c3cc(OC)ccc32)cc1,inconclusive: 25.4%,
CCOc1cc(/C=C2\C(=O)N(c3nc(-c4ccc(Br)cc4)cs3)N=C2c2ccccc2)ccc1O,inconclusive: 40.5%,
Cc1ccccc1Cn1c(C)nc2ccccc21,,active: 10.3 µM
CC[N+](CC)(CC)CCOc1ccc(/C=C/c2ccccc2)cc1,inconclusive: -23.6%,
CCOc1ccccc1NC(=O)NC(C)c1ccncc1 (configuration not stated),inconclusive: -19.9%,
CC1CN(Cc2cc(=O)oc3cc(O)c(Cl)cc23)CC(C)O1 (configuration not stated),,active: 1.64 µM
CCOC(=O)CNc1nc(Cl)nc(Nc2ccc(C)cc2)n1,inconclusive: 30.3%,
CC(C)(C)C(=O)N1CCN(c2ccc([N+](=O)[O-])c(NCC3CCCO3)c2)CC1 (configuration not stated),inconclusive: 128%,
COCCN(C(=O)CSCc1ccc(C)cc1)c1c(N)n(CC(C)C)c(=O)[nH]c1=O,,"inconclusive: 0.206 µM [activator, full curve, poor fit]"
CCn1nnc(-c2ccccc2NS(=O)(=O)c2ccc(C(=O)OC)cc2)n1,,"inconclusive: 16.4 µM [activator, partial curve]"
COCCn1c(SCC(=O)N2CCOCC2)nc2c(c1=O)SCC2,,"inconclusive: 6.51 µM [activator, single point]"
O=C(C1=C(O)C(=O)N(CCOCCO)C1c1ccccn1)c1cccs1 (configuration not stated),,"inconclusive: 0.0052 µM [falling, full curve, poor fit]"
COc1cc2c(cc1OC)-c1cc(Nc3ccccc3)nc(=O)n1CC2,inconclusive: 14.4%,
CCOC(=O)CNC(=O)c1cnn2cccnc12,inconclusive: 14.2%,
CC1(C)NC(=O)N(CC(O)CN(c2ccccc2)S(=O)(=O)c2ccccc2[N+](=O)[O-])C1=O (configuration not stated),inconclusive: -43%,
Cc1nnc(SCC(=O)c2c(N)n(C)c(=O)n(C)c2=O)n1Cc1ccccc1,inconclusive: 44.1%,

SMILES,"lipid storage change, negative = inhibition",Potency
Cn1c(=O)c2c(SCC(=O)Nc3ccc4c(c3)OCCO4)nc(CC(C)(C)C)nc2n(C)c1=O,inconclusive: 15.1%,
CCOc1ccc(-n2c(=S)sc3c(=O)n(-c4ccccc4)c(SC)nc32)cc1,inconclusive: 14.4%,
COc1ccc(N2CCN(c3ccc(N4C(=O)COCC4=O)cc3[N+](=O)[O-])CC2)cc1,,"inconclusive: 20.6 µM [falling, single point]"
O=C(OCC(=O)N1CCCC1=O)c1nc(Cl)c(Cl)c(Cl)c1Cl,,active: 7.08 µM
COc1ccc(NC(=O)COC(=O)CNS(=O)(=O)/C=C/c2ccccc2)cc1OC,inconclusive: -39.9%,
Cc1cc(C)n(C(=O)C2CCCN2S(=O)(=O)c2ccc(Cl)cc2)n1 (configuration not stated),inconclusive: -4.71%,
CCCCn1c(-c2ccc(F)c(F)c2)nc2cc3[nH]c(=O)c(C(C)C)nc3cc21,inconclusive: -86.2%,
Cc1nnc(SC(C)C(=O)Nc2sc3c(c2C#N)CCCC3)[nH]c1=O (configuration not stated),inconclusive: 97.6%,
NC1=NC(=O)/C(=C/c2ccc(Cl)cc2Cl)S1,inconclusive: -6.35%,
Cc1ccc(C(=O)C2CCN(CC(=O)Nc3ccc(N(C)C)cc3)CC2)cc1,inconclusive: 14.4%,
CC(OC(=O)Nc1cccc(Cl)c1)C(=O)O (configuration not stated),inconclusive: -16.4%,
CCOC(=O)C1=C(CSc2nc3c(cc2C#N)CN(C)CC3)OC(N)=C(C#N)C1c1ccncc1 (configuration not stated),inconclusive: 15.1%,
COc1ccc(OC)c(N/C(C)=C/C(=O)c2ccncc2)c1,inconclusive: -74.3%,
COc1cc(-c2nn3c(COc4ccccc4)nnc3s2)cc(OC)c1OC,inconclusive: 18.1%,
COc1cccc(CN2CCN(C(=O)c3cc(-c4cccnc4)nc4ccc(C)cc34)CC2)c1,,"inconclusive: 16.4 µM [falling, single point]"
CCCCn1c(N)c(N(CCC(C)C)C(=O)c2sc3nc4n(c(=O)c3c2C)CCC4)c(=O)[nH]c1=O,,"inconclusive: 2.06 µM [falling, single point]"
Cc1cccc(C)c1NC(=S)N/N=C/c1ccccc1C(=O)O,,"inconclusive: 0.82 µM [falling, full curve, poor fit]"
COc1ccccc1NS(=O)(=O)c1ccc(C(=O)NCC2(N(C)C)CCCCC2)cc1,inconclusive: -6.84%,
CC1CCCC(NC(=O)COC(=O)c2ccc3ccccc3n2)C1C (configuration not stated),,"inconclusive: 2.06 µM [falling, partial curve]"
N#C/C(C(=O)NCc1ccco1)=C1/SC(Cc2ccc(Cl)cc2)C(=O)N1c1ccccc1 (configuration not stated),inconclusive: 6.39%,
COc1ccccc1C(=O)C1CCCN(C(=O)Nc2ccccc2F)C1 (configuration not stated),inconclusive: -0.822%,
N#Cc1cc2ccccc2nc1SCC(=O)Nc1ccc(S(=O)(=O)N2CCCC2)cc1,inconclusive: 4.35%,
O=C(c1ccccc1)c1ccc(Cn2cc(-c3ccccc3)nn2)cc1,inconclusive: 1.45%,
O=C(CCC(=O)N1CCOc2ccccc21)N1CCOCC1,inconclusive: -0.543%,
CC1(C)Oc2ccc3ccc(=O)oc3c2/C(=C/NCCO)C1=O,inconclusive: -17%,
